This passage reports AC50 results from PubChem BioAssay AID493014 (National Center for Advancing Translational Sciences (NCATS), 2011).

The assay is described as follows: qHTS Assay to Find Inhibitors of Chronic Active B-Cell Receptor Signaling. Conditions: ABC-DLBCL IkBa-CBG/CBR reporter, luminescence ratio (green luciferase fused to IkBa over red control in TMD8 lymphoma cells), 4 h. In short, it runs like this:
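Concentration-response series (up to 46 uM) were applied to TMD8 dual-reporter cells for 4 h at 37C with doxycycline. Green/red ratio, after filter-overlap correction, defined %Activity; red signal alone was normalised to basal cells and zero luminescence.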
(qHTS replaces the single test concentration by a dilution series.)

The mark [1] stands for this setting: measured here: CBR red luminescence, cell number.
The mark [2] stands for this setting: measured here: IkBa-CBG green luminescence.

Molecules are shown by their SMILES. Some of the results follow. Further columns of the screen follow, without active or inactive calls. Compounds called inactive in the main read-out are mostly missing here. Potencies come from curve fits of mixed quality, noted in brackets.

Broadly, the AC50 is the concentration giving half of the maximal activity seen.

Consider `Cc1noc(C)c1CSc1cc(C)c2ccccc2n1`, for which the half-maximal activity concentration (AC50) was 12.6 µM [rising, partial curve] under setting [1] and 20 µM [falling, single point] under setting [2].
In the case of `CC(CN1CCOCC1)OC(=O)c1cccs1` (configuration not stated), under setting [1], the AC50 was 29.1 µM [rising, single point].
Still for that read-out and setting: for `O=C1/C(=C/c2cccs2)Sc2ccccc21` the value was 32.6 µM [falling, single point]; for `CCN1C(=O)[C@H]2[C@@H](c3ccc(C)cc3)N3C(=O)N(c4cccc(Cl)c4)C(=O)[C@@]3(CC(C)C)[C@H]2C1=O`, 3.66 µM [falling, partial curve, poor fit].
As for `NS(=O)(=O)c1ccc(NC(=O)CCc2ccccc2)cc1`, the AC50 under setting [1] was 9.2 µM [rising, partial curve, poor fit].
Still for that read-out and setting: under `COc1cccc(-c2cc(C(=O)Nc3cc(OC)c(OC)c(OC)c3)no2)c1` stands 29.1 µM [falling, single point]; under `COc1cc(CC(=O)NCCc2ccc(OCc3ccccc3)cc2)c([N+](=O)[O-])cc1OC`, 5.8 µM [falling, full curve, poor fit]; under `COc1ccccc1CC(=O)Nc1ccc([N+](=O)[O-])cc1O`, 35.5 µM [falling, single point].
Still for that read-out and setting: under `CCOc1ccc2nc(SCC(=O)Nc3cc(C)on3)c(C)cc2c1` stands 5.01 µM [falling, partial curve, poor fit].
For `O=c1[nH]c2ccccc2n1C1CCCCC1`, the AC50 under setting [1] was 29.1 µM [rising, single point].
With `CCOc1ccc(OCC)c(NC(=O)Cn2c(C)nc3ccccc3c2=O)c1`, the half-maximal activity concentration (AC50) under setting [1] was 20 µM [falling, single point].
The same measure, in the same setting: for `Cc1ccc(NC(=O)c2ccc(S(=O)(=O)N3CCCC3)cc2)nc1` the value was 1.64 µM [falling, partial curve, poor fit]; for `CCOC(=O)N/N=C/c1c(F)c(F)c(F)c(F)c1F`, 23.1 µM [falling, single point]; for `CCC(C)NC(=O)CS(=O)Cc1nc(-c2cccc(OC)c2)oc1C` (configuration not stated), 0.0058 µM [rising, full curve, poor fit].
Still for that read-out and setting: under `Cn1nnnc1SCC(=O)NNC(=O)c1ccc(Cl)cc1` stands 35.5 µM [rising, single point]; under `CCN(CC)c1ccc(/C=N/NC(=O)Nc2ccccc2)cc1`, 0.178 µM [rising, full curve, poor fit].
On the same count and under the same terms, under `CCOC(=O)c1c(-c2ccc(OC)cc2)csc1/N=C/N(C)C` stands 11.6 µM [rising, partial curve, poor fit]; under `CCc1ccc(C(=O)COC(=O)c2n[nH]c3ccccc23)cc1`, 8.91 µM [falling, partial curve].
With `Cc1ccc(C2C3=C(CCCC3=O)Nc3c2c(C)nn3-c2ccccn2)o1` (configuration not stated), the AC50 under setting [1] is 11.2 µM [falling, partial curve, poor fit].
The same measure, in the same setting: under `CCNC(=O)COc1ccc(CC)cc1` stands 32.6 µM [rising, partial curve, poor fit].
The same measure, in the same setting: for `Cc1noc(C)c1C(=O)Nc1ccccn1` the value was 3.66 µM [rising, single point]; for `O=C(Nc1ccccc1)Nc1nc2ccccc2s1`, 3.98 µM [falling, partial curve, poor fit]; for `CCCCCCOc1ccc(/C=c2\s/c(=C(/C#N)C(=O)NCc3ccco3)n(-c3ccccc3)c2=O)cc1`, 16.4 µM [falling, single point].
On the same count and under the same terms, under `O=C(CSCc1ccccc1Cl)Nc1ccc2c(c1)OCCO2` stands 1.41 µM [rising, partial curve]; under `CCOC(=O)c1c(NC(=O)c2ccc(Br)cc2)sc2c1CCCC2`, 20 µM [falling, partial curve, poor fit]; under `O=C(c1cccc(S(=O)(=O)N2CCOCC2)c1)N1CCN(S(=O)(=O)c2cccc([N+](=O)[O-])c2)CC1`, 29.1 µM [falling, single point].
Regarding `CN1CCC(=NNC(=O)C(=O)Nc2ccc(F)cc2)CC1`, the AC50 under setting [1] is 12.6 µM [falling, partial curve].
The same measure, in the same setting: for `O=C(Nc1ccccc1F)Nc1cc(Cl)ccc1-n1cncn1` the value was 0.562 µM [rising, partial curve, poor fit]; for `CCn1cc(C(=O)N2CCN(C(=O)c3ccco3)CC2)c2cc(OC)c(OC)cc2c1=O`, 3.66 µM [rising, full curve, poor fit]; for `CCOC(=O)c1cc2c(=O)n3cccc(C)c3nc2n(Cc2ccco2)c1=NC(=O)c1cccnc1`, 0.58 µM [falling, full curve, poor fit].
Same read-out and setting: for `O=C(N/N=C/c1cccnc1)c1ccccc1Br` the value was 3.16 µM [falling, partial curve].
On the same count and under the same terms, for `O=C1/C(=C/c2ccc(O)cc2)SC(=S)N1CC1CCCO1` (configuration not stated) the value was 35.5 µM [falling, single point]; for `CCOc1cc(-c2conc2N)cc(OCC)c1OCC`, 0.092 µM [rising, full curve, poor fit].
Consider `C=CCNC(=O)c1ccc(-c2ccc([N+](=O)[O-])cc2)o1`, for which the AC50 under setting [1] was 29.1 µM [rising, single point].
Consider `O=C1CN(C(=O)COC(=O)/C=C/c2ccc(OC(F)F)cc2)c2ccccc2N1`, for which the AC50 under setting [1] is 16.4 µM [rising, partial curve, poor fit].
For the compound `Cc1ccccc1CC1(CO)CCCN(Cc2ccc(C#CC(C)(C)O)cc2)C1` (configuration not stated), the AC50 under setting [1] was 17.8 µM [falling, partial curve, poor fit].
Same read-out and setting: for `CCN1CCN(S(=O)(=O)c2ccc(OC)c(Br)c2)CC1` the value was 6.51 µM [rising, single point].
Consider `Cc1ccc(CCNC(=O)c2cc(C)nn2-c2ccccc2)cc1`, for which the half-maximal activity concentration (AC50) under setting [1] was 6.31 µM [rising, single point].
The same measure, in the same setting: under `O=C(NNC(=O)c1cccs1)c1ccc(Cl)c(Cl)c1` stands 18.4 µM [falling, partial curve]; under `Clc1ccc(-c2nnc(-c3ccccc3)c(-c3ccccc3)n2)cc1`, 1.41 µM [rising, partial curve, poor fit].
Take `COc1ccc(NC(=O)/C(Cl)=C(/Cl)S(=O)Cc2ccc(C)cc2)cn1` (configuration not stated): the AC50 is 1.16 µM [falling, full curve, poor fit] under setting [1] and 0.82 µM [rising, full curve, poor fit] under setting [2].
Regarding `CC(C)(C)NC(=O)CN(C(=O)c1snc(C(=O)NC2CCCCC2)c1N)c1ccc(F)cc1`, the AC50 under setting [1] was 35.5 µM [rising, single point].
Same read-out and setting: for `COC(=O)C1CCN(C(=O)Cc2ccccc2OC)CC1` the value was 5.62 µM [falling, single point]; for `Cc1ccc(C2(C)NC(=O)N(CC(=O)Nc3ccc4c(c3)OCO4)C2=O)cc1` (configuration not stated), 4.11 µM [rising, full curve, poor fit]; for `COc1ccc(C(=O)COC(=O)C(C(C)C)N2C(=O)C3C4C=CC(C4)C3C2=O)cc1` (configuration not stated), 8.2 µM [rising, partial curve, poor fit].
Still for that read-out and setting: under `COc1ccc(CNC(=O)c2sccc2C)cc1` stands 3.16 µM [falling, full curve]; under `CCCCn1c(N)c(N(CC(C)C)C(=O)c2cccc(OCc3ccccc3)c2)c(=O)[nH]c1=O`, 29.1 µM [falling, single point].
The same measure, in the same setting: for `Cc1ccccc1Cn1c(=N)n(CC(O)c2ccco2)c2ccccc21` (configuration not stated) the value was 20.6 µM [falling, single point]; for `CN(C)N1C(N)=C(C#N)C(c2ccccc2)C2=C1CCCC2=O` (configuration not stated), 35.5 µM [falling, single point].
Take `COc1ccc(CNC(=O)C2CCCN2S(=O)(=O)c2ccc(Cl)cc2)cc1` (configuration not stated): the AC50 under setting [1] was 2.59 µM [rising, partial curve, poor fit].
In the case of `CCOC(=O)C1(C)C=C(Nc2ccccc2)C(=O)N1c1ccccc1` (configuration not stated), the AC50 under setting [1] was 2.82 µM [rising, full curve, poor fit].
The same measure, in the same setting: under `O=C(Cc1ccc(Cl)cc1)NC1CC1` stands 3.16 µM [rising, full curve, poor fit]; under `Cc1ccc(S(=O)(=O)N2CCCC2C(=O)OCc2nc3sc(C)c(C)c3c(=O)[nH]2)cc1` (configuration not stated), 16.4 µM [falling, partial curve, poor fit]; under `COc1cc(CNCCO)ccc1OC1CCCC1`, 4.11 µM [falling, single point].
`Cc1nc2cc(-c3ccccc3)nn2c(C)c1CCC(=O)NCc1ccco1`: the AC50 under setting [1] is 20.6 µM [falling, single point].
As to `O=C1C=C(c2cc(F)ccc2F)C[C@@H](c2ccc(Cl)cc2)C1`, the AC50 under setting [1] was 1.46 µM [rising, partial curve, poor fit].
Same read-out and setting: for `O=C(Nc1ccc(O)cc1C(=O)O)c1cccc(Br)c1` the value was 0.316 µM [falling, full curve]; for `O=C(Nc1ccc(F)cc1)c1cccnc1N1CCCCC1`, 0.164 µM [falling, partial curve, poor fit].
On the same count and under the same terms, for `Cc1onc(-c2ccccc2)c1C(=O)OCC(=O)Nc1ccccc1` the value was 6.51 µM [rising, single point]; for `COc1ccc2nc(C)cc(SCC(=O)N/N=C/c3cccc4ccccc34)c2c1`, 18.4 µM [falling, single point].
Still for that read-out and setting: under `COC(=O)c1cn(C(=O)c2cc(C)cc(C)c2)c2ccccc12` stands 5.62 µM [rising, full curve, poor fit]; under `Oc1[nH]c2ccccc2c1N=Nc1nc(Nc2ccccc2)nc(N2CCOCC2)n1`, 22.4 µM [falling, single point].
Regarding `COc1cc(CNc2ccc(N3CCCC3)cc2)ccc1OCc1ccccc1F`, under setting [1], the AC50 was 5.8 µM [falling, full curve].
Consider `COc1ccc(C2NC(=O)C(C#N)=C(S)N2c2cccc(C)c2)cc1OC` (configuration not stated), for which the AC50 runs as follows: under setting [1], 11.2 µM [rising, partial curve]; under setting [2], 25.1 µM [falling, single point].
